# Results are given in words; binding and its absence hold for the method and conditions named.
# T1: Rad26 (wild type) (S. cerevisiae, UniProt P40352 1-1085)
# T1 construct: Rad26, S. cerevisiae ortholog of human CSB, Swi2/Snf2 family ATPase; also called Rad26(WT); yeast ortholog of CSB; source: E. coli Rosetta 2(DE3), purified (Ni-NTA agarose, Hi-Trap Heparin HP, Superdex 200)
# T1 sequence: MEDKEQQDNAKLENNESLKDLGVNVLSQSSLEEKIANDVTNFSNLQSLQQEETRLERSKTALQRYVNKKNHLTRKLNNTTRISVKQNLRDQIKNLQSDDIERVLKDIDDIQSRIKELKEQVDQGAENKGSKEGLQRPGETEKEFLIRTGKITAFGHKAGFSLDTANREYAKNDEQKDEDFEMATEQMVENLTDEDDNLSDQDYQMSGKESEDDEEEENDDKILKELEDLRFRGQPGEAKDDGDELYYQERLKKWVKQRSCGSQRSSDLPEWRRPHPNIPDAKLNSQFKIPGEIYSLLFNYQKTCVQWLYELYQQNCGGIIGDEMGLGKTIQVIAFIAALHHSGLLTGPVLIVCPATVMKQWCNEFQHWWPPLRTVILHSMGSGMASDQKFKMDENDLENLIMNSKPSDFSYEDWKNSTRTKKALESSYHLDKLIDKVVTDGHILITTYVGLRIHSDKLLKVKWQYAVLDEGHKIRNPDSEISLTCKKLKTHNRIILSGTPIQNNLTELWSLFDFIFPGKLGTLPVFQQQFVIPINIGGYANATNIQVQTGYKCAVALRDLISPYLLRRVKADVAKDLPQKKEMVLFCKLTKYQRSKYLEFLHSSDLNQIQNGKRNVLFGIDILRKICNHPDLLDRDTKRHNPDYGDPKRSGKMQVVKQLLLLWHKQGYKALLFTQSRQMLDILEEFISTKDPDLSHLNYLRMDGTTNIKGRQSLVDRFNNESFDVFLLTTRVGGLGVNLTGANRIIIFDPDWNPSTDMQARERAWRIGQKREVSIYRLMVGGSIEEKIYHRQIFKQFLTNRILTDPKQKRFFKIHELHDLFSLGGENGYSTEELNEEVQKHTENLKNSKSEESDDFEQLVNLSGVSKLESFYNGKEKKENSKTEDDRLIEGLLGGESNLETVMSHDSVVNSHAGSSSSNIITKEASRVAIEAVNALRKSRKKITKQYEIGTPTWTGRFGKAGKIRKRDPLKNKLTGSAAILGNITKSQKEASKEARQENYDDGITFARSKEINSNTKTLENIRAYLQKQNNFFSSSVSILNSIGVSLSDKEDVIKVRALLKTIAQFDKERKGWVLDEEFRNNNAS
# B1: Elf1 (wild type) (protein, UniProt P36053 1-145)
# chain: MGKRKKSTRKPTKRLVQKLDTKFNCLFCNHEKSVSCTLDKKNSIGTLSCKICGQSFQTRINSLSQPVDVYSDWFDAVEEVNSGRGSDTDDGDEGSDSDYESDSEQDAKTQNDGEIDSDEEEVDSDEERIGQVKRGRGALVDSDDE
# Molecular target: T1, Rad26 (wild type)
# Test: cryo-EM structure; Pol II(CPD)-Rad26-Elf1 (Closed state): Elf1 incubated with the Pol II(CPD)-Rad26 complex; 1 uM Pol II, 2 uM Rad26, 1.1 uM scaffold, 5 uM Elf1; 3.1 A; both purified
binder,measurement,value
B1,binding,no binding
